Values quoted from earlier work in patent US20160038468A1 (priority 2013, published 2016).
For at least one compound, name, drawing or mass did not settle the structure.

How the values were obtained:
[1] = test system: Clostridium difficile, ATCC 700057; conditions: agar dilution testing, from CLSI Table 5; cited from earlier work
[2] = test system: B. thetaiotaomicron, ATCC 29741; conditions: agar dilution testing, from CLSI Table 5; cited from earlier work

CCC[C@@H]1C[C@@H](C(=O)N[C@@H]([C@H]2O[C@H](SC)[C@H](O)[C@@H](O)[C@H]2O)[C@H](C)Cl)N(C)C1 [Clindamycin]
Acceptable Range of MIC for control strain [1]: 2 to 8 µg/mL | Acceptable Range of MIC for control strain [2]: 2 to 8 µg/mL
